Where “and” joins values, the source holds several entries; their conditions need not be identical. Equal values may be shown once. Screen size: about 300,000 compounds; about 5,400 (1.8%) were called active. The inconclusive results got no clear call from the source; some entries with a clear call stand among them for comparison. Calls follow the shape of the full dose curve; tested in HEK293 cells. Potencies of inconclusive entries are doubtful fits and often do not repeat.
Assay: qHTS for inhibitors of binding or entry into cells for Marburg Virus
Details: Marburg virus pseudotyped entry inhibition, cell reporter; activity change, negative = inhibition: at 37.8 µM (top of the series) unless noted
% is scaled to controls: 0 for no effect and ±100 for the full control effect; potency is read from the fitted curve at half-maximal effect.

Q: Which Potency does the source give for `O=S(=O)(CCOc1ccccc1)N1CCOCC1` here?
A: The Potency was inconclusive: 3.16 µM [activator, partial curve, poor fit].

Q: With `O=C1N/C(=C/c2ccc(Br)cc2)C(O)=C1C=NCc1ccccc1` as the compound, how does the Potency read?
A: Its Potency is inconclusive: 0.891 µM [inhibitor, single point].

Q: Which Potency does the source give for `CCOC(=O)c1c(NC(=O)CSc2cn(CCNC(=O)c3ccc(OC)c(OC)c3)c3ccccc23)sc2c1CCCC2` here?
A: The Potency was inconclusive: 35.5 µM [inhibitor, single point].

Q: For `CCc1cccc(NS(=O)(=O)c2ccc3c(c2)n(C)c(=O)c(=O)n3C)c1`, which “activity change, negative = inhibition” value is on record?
A: Its value is inactive: 0.882% [at 46.1 µM].

Q: Which Potency does the source give for `CN(C(=O)COC(=O)c1c2c(nc3ccccc13)/C(=C/c1cccc([N+](=O)[O-])c1)CCC2)C1CCS(=O)(=O)C1` (stereo not given) here?
A: The Potency was inconclusive: 11.2 µM [inhibitor, single point].

Q: Which Potency does the source give for `CCN1CCc2nc3sc(C(=O)N4CCc5ccccc5C4)c(N)c3cc2C1` here?
A: The Potency was inconclusive: 11.2 µM [inhibitor, partial curve, poor fit].

Q: For `CCOc1cc(CN2CCOCC2)cc(C(C)=O)c1`, which “activity change, negative = inhibition” value is on record?
A: Its value is inactive: -1.2%.

Q: For `COc1ccc(C=C2C(=O)N(C)C(=O)N(C)C2=O)cc1CSc1ccccn1`, which “activity change, negative = inhibition” value is on record?
A: Its value is inactive: 20.8%.

Q: With `CCOc1ccc(N2C(=O)/C(=C/c3cccs3)N(CC(=O)OC)C2=S)cc1` as the compound, how does the Potency read?
A: Its Potency is inconclusive: 29.1 µM [inhibitor, single point].

Q: Which Potency does the source give for `C[C@](O)(C#CCN1CCOCC1)c1ccccc1` here?
A: Its Potency is inconclusive: 6.31 µM [activator, partial curve].

Q: Which “activity change, negative = inhibition” value does the source give for `CN1c2ccccc2C(=O)NC1c1ccc(Cl)cc1` (stereo not given) here?
A: Its value is inactive: 4.75%.

Q: With `COc1ccccc1NC(=O)C/C(C)=N/NC(=O)COc1c(Br)cc(Br)cc1OC` as the compound, how does the “activity change, negative = inhibition” value read?
A: Its value is inactive: 21.1% [at 46.1 µM].

Q: Which Potency does the source give for `CN(C)c1ccc(C(C(=O)NC2CCCC2)N(C(=O)c2csnn2)C2CC2)cc1` (stereo not given) here?
A: The Potency was inconclusive: 10 µM [inhibitor, partial curve, poor fit].

Q: For `Cc1ccnc(NCc2ccccc2O)c1`, which “activity change, negative = inhibition” value is on record?
A: Its value is inactive: 8.55% [at 46.1 µM].

Q: With `Cn1cc(CNCC2CCCO2)c(-c2ccc(Oc3ccccc3)cc2)n1` (stereo not given) as the compound, how does the Potency read?
A: The Potency was inconclusive: 10 µM [inhibitor, partial curve, poor fit].

Q: For `COc1ccc(CC(=O)N(Cc2ccccc2)c2ccc(C)cc2)cc1OC`, which Potency is on record?
A: The Potency was inconclusive: 35.5 µM [inhibitor, single point].

Q: With `C/C(=N\NC(=O)c1ccccc1)c1ccccc1Br` as the compound, how does the Potency read?
A: Its Potency is inconclusive: 2.06 µM [activator, full curve, poor fit].

Q: For `Cc1ccc(S(=O)(=O)N2CC(O)CC2C(=O)OCC(=O)c2ccccc2Cl)cc1C` (stereo not given), which “activity change, negative = inhibition” value is on record?
A: The value was inactive: -5.39%.

Q: Which Potency does the source give for `N#Cc1ncc(N=Cc2ccc(N(CCCl)CCCl)cc2)s1` here?
A: Its Potency is active: 0.794 µM.

Q: With `O=C(CNC(=O)c1ccccc1)NCC(=O)OCC(=O)c1ccc(F)cc1` as the compound, how does the “activity change, negative = inhibition” value read?
A: The value was inactive: 1.98%.

Q: For `O=C(Nc1ccccc1)N(Cc1cccs1)c1ccc(F)cc1`, which Potency is on record?
A: Its Potency is inconclusive: 35.5 µM [inhibitor, single point].

Q: For `Cc1ccccc1-n1ncc2c([N+](=O)[O-])cc([N+](=O)[O-])cc21`, which “activity change, negative = inhibition” value is on record?
A: Its value is inactive: -33.6%.

Q: With `O=C(CCS(=O)(=O)c1ccccc1)OCc1ccc([N+](=O)[O-])cc1` as the compound, how does the Potency read?
A: The Potency was inconclusive: 6.31 µM [activator, single point].

Q: Which Potency does the source give for `CCN(CC)S(=O)(=O)c1ccc(NC(=O)c2ccc(N3CCCC3=O)cc2)cc1` here?
A: Its Potency is inconclusive: 2 µM [inhibitor, partial curve].

Q: With `c1ccn2cc(CSc3nnc4ccccn34)nc2c1` as the compound, how does the Potency read?
A: The Potency was inconclusive: 3.66 µM [activator, partial curve, poor fit].

Q: For `COc1ccc(-c2cc3ccccc3oc2=O)cc1NC(=O)c1ccc(Br)o1`, which Potency is on record?
A: The Potency was inconclusive: 5.62 µM [activator, single point].

Q: Which “activity change, negative = inhibition” value does the source give for `CCOC(=O)N1CCN(C(=O)CN(c2cccc(Cl)c2)S(=O)(=O)c2ccccc2)CC1` here?
A: Its value is inactive: 28.5% [at 46.1 µM].

Q: Which Potency does the source give for `O=C1CCC/C1=c1\s/c(=C\c2cccnc2)c(=O)n1-c1ccccc1` here?
A: Its Potency is inconclusive: 35.5 µM [inhibitor, single point].

Q: For `CC(=O)N1CCN(Cc2nc3cc(NC(=O)c4cccc(Br)c4)ccc3n2C)CC1`, which Potency is on record?
A: The Potency was inconclusive: 35.5 µM [inhibitor, single point].

Q: Which Potency does the source give for `CCCn1c(SCCC(=O)O)nc2ccccc21` here?
A: Its Potency is inconclusive: 3.55 µM [activator, single point].

Q: For `CCn1ncc(C2=NOC(C(=O)Nc3ccccc3C(=O)OC)C2)c1C` (stereo not given), which Potency is on record?
A: The Potency was inconclusive: 18.3 µM [inhibitor, partial curve, poor fit].

Q: For `CCCCn1c(N)c(N(CC(C)C)C(=O)CSCc2cccc(C)c2)c(=O)[nH]c1=O`, which Potency is on record?
A: The Potency was inconclusive: 1.12 µM [inhibitor, full curve, poor fit].

Q: For `O=C(Cc1ccccc1)Nc1cc(C(=O)c2ccccc2)ccc1N1CCOCC1`, which “activity change, negative = inhibition” value is on record?
A: The value was inactive: 11.9%.

Q: Which “activity change, negative = inhibition” value does the source give for `COC(=O)c1ccccc1NC(=O)c1sc(N)nc1C` here?
A: The value was inactive: -3.82%.

Q: With `Cc1cccc(OCC(=O)Nc2c(C(=O)N3CCN(c4ccccc4F)CC3)oc3ccccc23)c1` as the compound, how does the Potency read?
A: The Potency was active: 10 µM.

Q: With `Cc1cc(C)cc(OCC(=O)NC(Cc2c[nH]c3ccccc23)C(=O)O)c1` (stereo not given) as the compound, how does the “activity change, negative = inhibition” value read?
A: Its value is inactive: 3.6% [at 46.1 µM].

Q: For `COc1ccc(C(=O)OCn2nnc3ccccc3c2=O)cc1[N+](=O)[O-]`, which Potency is on record?
A: The Potency was inconclusive: 7.08 µM [activator, full curve, poor fit].

Q: For `O=C1C(Cl)=C(Nc2ccc3cn[nH]c3c2)C(=O)c2ccccc21`, which Potency is on record?
A: The Potency was inconclusive: 3.98 µM [inhibitor, full curve, poor fit].

Q: For `O=C(/C=C\Nc1ccc2c(c1)OCO2)c1cccs1`, which Potency is on record?
A: The Potency was inconclusive: 1.26 µM [inhibitor, full curve, poor fit].

Q: For `Cc1cc(C)n(-c2nc3ccccc3nc2Nc2ccc(Cl)c(Cl)c2)n1`, which “activity change, negative = inhibition” value is on record?
A: The value was inactive: -15.7% [at 46.1 µM].

Q: For `COc1ccccc1N1CCN(CC(=O)Nc2ccccc2C(=O)NC(C)c2ccccc2)CC1` (stereo not given), which Potency is on record?
A: Its Potency is inconclusive: 35.5 µM [inhibitor, single point].

Q: With `Oc1ccc2c3c1O[C@H]1c4oc5ccccc5c4C[C@@]4(O)C(C2)N(CC2CC2)CCC314` (stereo not given in full) as the compound, how does the Potency read?
A: Its Potency is active: 22.4 µM and active: 10.3 µM.

Q: Which “activity change, negative = inhibition” value does the source give for `COC(=O)c1ccc(NC(=O)CC2Nc3cc(C)c(C)cc3NC2=O)cc1` (stereo not given) here?
A: Its value is inactive: 12.3% [at 46.1 µM].

Q: With `CN(C)Cc1ccccc1OC(=O)N(C)C` as the compound, how does the Potency read?
A: Its Potency is inconclusive: 25.1 µM [inhibitor, single point].

Q: Which Potency does the source give for `O=C(NCCc1ccccn1)C1CCCN1S(=O)(=O)c1ccc(Cl)cc1` (stereo not given) here?
A: Its Potency is inconclusive: 11.2 µM [activator, single point].

Q: Which Potency does the source give for `Cc1noc(C)c1COc1ccccc1C(=O)NCc1ccccc1Cl` here?
A: The Potency was inconclusive: 5.62 µM [inhibitor, full curve].

Q: For `COCCCN(C(C)=O)c1nc(-c2ccc(OC)cc2)cs1`, which Potency is on record?
A: Its Potency is inconclusive: 0.0065 µM [inhibitor, full curve, poor fit].

Q: For `Cc1cc([N+](=O)[O-])cc(C)c1OCC(=O)N/N=C/c1ccc(OC(=O)c2ccccc2Br)cc1`, which “activity change, negative = inhibition” value is on record?
A: The value was inactive: 6.16%.

Q: Which Potency does the source give for `COc1cccc(N2CCc3c(C)nc4ccc(Cl)cc4c32)c1` here?
A: The Potency was active: 11.2 µM.

Q: For `C/C(Cl)=C/Cc1c(C)[nH]c2ccc(C)cc2c1=O`, which “activity change, negative = inhibition” value is on record?
A: The value was inactive: 16.7%.

Q: With `Cc1ccc(NC(=O)c2nn(C34CC5CC(CC(C5)C3)C4)cc2[N+](=O)[O-])cc1` as the compound, how does the Potency read?
A: The Potency was inconclusive: 0.461 µM [inhibitor, full curve, poor fit].

Q: Which Potency does the source give for `CN(CC(=O)N1CCN(c2ccc(F)cc2)CC1)S(=O)(=O)c1ccc(F)cc1` here?
A: Its Potency is “inactive”.

Q: For `Cc1cccc(Nc2ccccc2C(=O)O)c1C`, which Potency is on record?
A: Its Potency is “inactive”.

Q: With `COc1ccccc1-c1ccc(NC2CCCCC2)nn1` as the compound, how does the Potency read?
A: Its Potency is inconclusive: 6.51 µM [activator, partial curve, poor fit].

Q: For `Cc1ccsc1C1C(C(=O)O)c2ccccc2C(=O)N1C` (stereo not given), which Potency is on record?
A: Its Potency is inconclusive: 0.794 µM [inhibitor, partial curve, poor fit].

Q: With `COc1ccc(C(=O)N2CCN(c3nc(C4CC4)nc4sc(C)c(C)c34)CC2)cc1` as the compound, how does the Potency read?
A: Its Potency is inconclusive: 35.5 µM [inhibitor, single point].

Q: Which Potency does the source give for `CCN1CCN(Cc2ccc(NC(=O)Nc3ccc(SC)cc3)cc2)CC1` here?
A: Its Potency is inconclusive: 35.5 µM [inhibitor, single point].

Q: For `CC(=O)c1sc2nc(C)cc(C)c2c1N`, which “activity change, negative = inhibition” value is on record?
A: Its value is inactive: 23.3%.

Q: For `COc1ccc(-n2cc(CN3CCC(OC)CC3)c(-c3cccc(F)c3)n2)cc1`, which Potency is on record?
A: The Potency was inconclusive: 2 µM [inhibitor, partial curve, poor fit].

Q: For `CCOC(=O)C1=C(Nc2ccccc2)CC(C)(O)C(C(=O)OCC)C1c1ccc(Br)cc1` (stereo not given), which Potency is on record?
A: Its Potency is inconclusive: 0.199 µM [inhibitor, full curve, poor fit].

Q: Which Potency does the source give for `Cc1cc(N=NC(=O)c2ccccc2O)c2ccccc2c1O` here?
A: Its Potency is inconclusive: 32.6 µM [inhibitor, single point].

Q: With `CCCCN(CCCC)S(=O)(=O)c1c(C)[nH]c(=O)[nH]c1=O` as the compound, how does the “activity change, negative = inhibition” value read?
A: Its value is inactive: -0.784% [at 46.1 µM].

Q: For `COC(=O)c1c(C)oc2ccc(N(C(C)=O)S(=O)(=O)c3ccccc3)cc12`, which Potency is on record?
A: Its Potency is inconclusive: 22.4 µM [inhibitor, single point].

Q: Which Potency does the source give for `Cc1cc(C(=O)N/N=C/c2c(C)n(C)c3ccccc23)n[nH]1` here?
A: Its Potency is inconclusive: 6.51 µM [inhibitor, single point].

Q: Which Potency does the source give for `Cc1ccc(Nc2nc(=O)c3cccnc3s2)cc1` here?
A: Its Potency is inconclusive: 16.4 µM [inhibitor, single point].

Q: Which Potency does the source give for `C=CCn1c(=O)c2ccccc2n2c(SCc3nnc(-c4ccccc4Br)o3)nnc12` here?
A: Its Potency is inconclusive: 2.06 µM [inhibitor, single point].

Q: With `CCNC(=O)COc1cc(C)c(Br)c(C)c1` as the compound, how does the Potency read?
A: The Potency was inconclusive: 3.55 µM [activator, single point].

Q: Which Potency does the source give for `Cc1cc(NC(=S)NC(=O)/C=C/c2ccc(S(=O)(=O)N3CCOCC3)cc2)ccc1Br` here?
A: The Potency was inconclusive: 22.4 µM [inhibitor, single point].

Q: For `Brc1ccc(-c2nc3ccccn3c2Nc2ccc3c(c2)OCCO3)o1`, which “activity change, negative = inhibition” value is on record?
A: The value was inactive: 2.4% [at 46.1 µM].

Q: For `COc1cc(/C=N/Nc2nc(Nc3ccccc3)nc(-n3nc(C)cc3C)n2)cc(OC)c1OC`, which Potency is on record?
A: Its Potency is active: 7.31 µM.

Reference: PubChem BioAssay AID540276 (National Center for Advancing Translational Sciences (NCATS), 2011)
